The supplement of paper PMC4604168 (melanoma cell lines)
The other results are listed elsewhere or left out. Single values are uncertain, as repeats are few or missing.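 Imaging used 1,536-well plates; nuclei positive for cleaved PARP by antibody were divided by total DNA-stained nuclei to yield the apoptosis fraction. Doses for screening kept most cells viable, and cell lines differ markedly in resting and induced cleaved-PARP levels.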

Assays:
Experiment in all cases: cleaved PARP positive nuclei fraction relative to DMSO control; melanoma cells; higher = more apoptosis
Conditions in all cases: library dose: low library concentration; 72 h
MZ2-MEL = tested on: MZ2-MEL
MeWo = tested on: MeWo
RPMI7951 = tested on: RPMI7951
RVH-421 = tested on: RVH-421
SkMel28 = tested on: SkMel28
SkMel2 = tested on: SkMel2
SkMel30 = tested on: SkMel30
UACC62 = tested on: UACC62
WM115 = tested on: WM115
WM1716 = tested on: WM1716
WM1745 = tested on: WM1745
WM3526 = tested on: WM3526
WM3619 = tested on: WM3619
WM451Lu = tested on: WM451Lu

SMILES	cleaved PARP positive nuclei fraction (MZ2-MEL)	cleaved PARP positive nuclei fraction (MeWo)	cleaved PARP positive nuclei fraction (RPMI7951)	cleaved PARP positive nuclei fraction (RVH-421)	cleaved PARP positive nuclei fraction (SkMel28)	cleaved PARP positive nuclei fraction (SkMel2)	cleaved PARP positive nuclei fraction (SkMel30)	cleaved PARP positive nuclei fraction (UACC62)	cleaved PARP positive nuclei fraction (WM115)	cleaved PARP positive nuclei fraction (WM1716)	cleaved PARP positive nuclei fraction (WM1745)	cleaved PARP positive nuclei fraction (WM3526)	cleaved PARP positive nuclei fraction (WM3619)	cleaved PARP positive nuclei fraction (WM451Lu)
Cn1c(=O)n(-c2ccc(C(C)(C)C#N)cc2)c2c3cc(-c4cnc5ccccc5c4)ccc3ncc21 + Nc1ccn([C@@H]2O[C@H](CO)[C@@H](O)C2(F)F)c(=O)n1 [gemcitabine] (first compound 0.004 µM, partner dose 0.0004 µM)	87.7%	106%	108%	126%	95.5%	73.7%	64.9%	401%	152%	71.4%	119%	58.5%	130%	91.7%
CC(C)C[C@H](NC(=O)[C@H](Cc1ccccc1)NC(=O)c1cnccn1)B(O)O [Bortezomib] + O=C(O)[C@@H]1[O][Sb](=[O])([O][Sb]2(=[O])[O][C@H]([C@H](O)CO)[C@H](O)[C@H](C(=O)O)[O]2)[O][C@H]([C@H](O)CO)[C@@H]1O [stibogluconate] (first compound 0.001 µM, partner dose 2 µM)	58.5%	519%	56.7%	139%	77.8%	78.2%	28.8%	103%	23.5%	3530%	108%	46.3%	230%	41.7%
Cc1cc(Nc2cc(N3CCN(C)CC3)nc(/C=C/c3ccccc3)n2)n[nH]1 + Cn1c(=O)n(-c2ccc(C(C)(C)C#N)cc2)c2c3cc(-c4cnc5ccccc5c4)ccc3ncc21 [NVP-BEZ235] (first compound 0.04 µM, partner dose 0.004 µM)	46.2%	108%	71.6%	125%	102%	540%	87.1%	116%	62.4%	147%	111%	93.1%	97.8%	19.7%
Cn1c(=O)n(-c2ccc(C(C)(C)C#N)cc2)c2c3cc(-c4cnc5ccccc5c4)ccc3ncc21 + CS(=O)(=O)CCNCc1ccc(-c2ccc3ncnc(Nc4ccc(OCc5cccc(F)c5)c(Cl)c4)c3c2)o1 [lapatinib] (first compound 0.004 µM, partner dose 0.8 µM)	138%	85.3%	68.9%	89.1%	150%	71.4%	41.3%	194%	133%	69.6%	97.3%	120%	82.9%	87.7%
CC(C)C[C@H](NC(=O)[C@H](Cc1ccccc1)NC(=O)c1cnccn1)B(O)O [Bortezomib] + Cn1nnc2c(C(N)=O)ncn2c1=O [temozolomide] (first compound 0.001 µM, partner dose 2 µM)	298%	56.6%	101%	240%	62.8%	75.6%	299%	212%	47.9%	937%	560%	50%	990%	116%
Cn1c(=O)n(-c2ccc(C(C)(C)C#N)cc2)c2c3cc(-c4cnc5ccccc5c4)ccc3ncc21 + Nc1ncn([C@H]2C[C@H](O)[C@@H](CO)O2)c(=O)n1 [decitabine] (first compound 0.004 µM, partner dose 0.1 µM)	153%	86.3%	34.2%	88%	51.9%	101%	51.8%	90.7%	99.5%	182%	105%	99%	125%	90.6%
Cc1cc(Nc2cc(N3CCN(C)CC3)nc(/C=C/c3ccccc3)n2)n[nH]1 + C=CCNC1=C2C[C@@H](C)C[C@H](OC)[C@H](O)[C@@H](C)/C=C(\C)[C@H](OC(N)=O)[C@@H](OC)/C=C\C=C(/C)C(=O)NC(=CC1=O)C2=O [Tanespimycin] (first compound 0.04 µM, partner dose 0.002 µM)	92.8%	96.1%	143%	107%	80.8%	97.6%	106%	48.8%	114%	280%	93.1%	169%	85.5%	77.3%
CN1CCN(c2ccc3nc(-c4c(N)c5c(F)cccc5[nH]c4=O)[nH]c3c2)CC1 [Dovitinib] + Clc1ccc(Nc2nnc(Cc3ccncc3)c3ccccc23)cc1 [vatalanib] (first compound 0.1 µM, partner dose 2 µM)	46%	149%	177%	74.8%	47.7%	109%	317%	92%	117%	74.4%	121%	41.1%	104%	360%
C[C@@H](Oc1cc(-c2cnn(C3CCNCC3)c2)cnc1N)c1c(Cl)ccc(F)c1Cl [Crizotinib] + COc1ccc(Cl)c(Nc2nc3ccccc3nc2NS(=O)(=O)c2cccc(NC(=O)C(C)(C)N)c2)c1 [XL147] (first compound 0.2 µM, partner dose 0.8 µM)	70.2%	53.7%	137%	98.7%	44%	80.4%	84%	144%	119%	20.4%	94.4%	66.6%	81.3%	30.9%
CS(=O)(=O)CCNCc1ccc(-c2ccc3ncnc(Nc4ccc(OCc5cccc(F)c5)c(Cl)c4)c3c2)o1 [lapatinib] + Cn1nnc2c(C(N)=O)ncn2c1=O [temozolomide] (first compound 0.8 µM, partner dose 2 µM)	53.4%	452%	80.7%	99.2%	86.3%	83.2%	98.6%	242%	133%	590%	97%	88.5%	80.1%	88.9%
